Common to all, as to experiment: co-IP; 400 μg whole cell lysate (Pierce IP lysis buffer) of PANC-1 vector control and NDRG1 overexpressing cells incubated overnight at 4 °C with NDRG1, PKCα or β-catenin antibody or isotype control antibody; protein A/G magnetic beads 1.5 h/4 °C; washed 5 times with ice-cold PBS; western blotting
(Immunoblotting shows a protein as a band on a membrane.)

By UniProt entry, the sequences of proteins in these tests, tags left out.
UniProt Q92597: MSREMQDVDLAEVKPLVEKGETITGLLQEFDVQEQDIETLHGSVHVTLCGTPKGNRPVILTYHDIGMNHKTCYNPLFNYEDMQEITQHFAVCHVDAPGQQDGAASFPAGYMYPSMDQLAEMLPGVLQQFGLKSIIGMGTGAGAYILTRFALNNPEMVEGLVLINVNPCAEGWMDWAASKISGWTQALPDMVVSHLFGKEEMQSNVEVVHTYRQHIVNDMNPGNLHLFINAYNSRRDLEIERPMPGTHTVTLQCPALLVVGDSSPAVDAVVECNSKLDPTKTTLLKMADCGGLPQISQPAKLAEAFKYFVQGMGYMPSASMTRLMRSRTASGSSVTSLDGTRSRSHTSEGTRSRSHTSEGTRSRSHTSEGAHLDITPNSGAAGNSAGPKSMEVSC

Assay [1] deals with N-myc downstream regulated gene-1 (NDRG1), FLAG-tagged (UniProt Q92597).
The target of assay [2] is β-catenin (human (endogenous in PANC-1)) (UniProt P35222).
Assay [3] deals with protein kinase Cα (PKCα) (human (endogenous in PANC-1)) (UniProt P17252).

No constants are given. Whether binding was seen depends on the method and setting. Binding seen in cells or lysates may run through a third protein. Some binding calls cover weakened binding; strength is not graded here.

As to “protein kinase Cα (PKCα) (from UniProt P17252 1-672) (enzyme)”, the binding entry in assay [1] and in assay [2] was “binds” each time.

As for β-catenin (from UniProt P35222 1-781), the binding result in assay [1] and in assay [3] was “binds” throughout.

The record behind these values is article PMC11261793.
